# US20040077031A1, “Novel methionine aminopeptidase-2 and uses thereof” (priority 2002, published 2004)
# At least one peptide structure holds a part that was inferred or is arguable (an end, a ring closure or a residue). Ends that are not written are not given here.
# Experiments:
# MetAP2 = target: T1, MetAP2 (Homo sapiens, UniProt P50579); assay: Metal dependence and baseline activity of MetAP2, chromogenic assay; type: biochemical; conditions: 30 nM MetAP2, no added metal
# T1 construct: gp67 secretion signal of vector pAcGP67B (N); made in house; host or cells: baculovirus-infected Sf9 insect cells, secreted into medium
# From the text: (§1) A coupled-enzyme chromogenic assay was used to measure methionine aminopeptidase activity by monitoring the production of free methionine cleaved from specific peptide substrates containing methionine. […] Other peptides can be used including dimeric, tetrameric, pentameric, hexameric, heptameric, nonameric, decameric, and undecameric peptides. […] Free methionine was oxidized with L-amino acid oxidase (AAO, Sigma Catalog No. A-9378) and horseradish peroxidase (HRP, Sigma Catalog No. P-8451). Oxidation by AAO of free methionine generates hydrogen peroxide (H2O2) which then reacts with HRP oxidizing 0-dianisidine (Sigma Catalog No. D-1954) or 10-acetyl-3,7-dihydrophenoxazine (Amplex Red, Molecular Probes). Assays were performed in 96-well microtiter plates. Enzyme preparations were diluted in assay buffer (50 mM HEPES, pH 7.4, 100 mM NaCl), and 10 μl of the enzymes were introduced into each well. […] The reactions were carried out at room temperature, and the absorbance at 450 nanometer (A450) was measured every 20 seconds over a period of twenty minutes using an automatic plate reader (Molecular Devices, Calif., USA). The rate in mOD/min, calculated for each well, was used to represent MetAP1 or MetAP2 activity. Under this assay condition, the methionine cleaved from peptide substrate by MetAP1 or MetAP2 was instantaneously oxidized to generate a final A450 readout. […]
# MetAP1 = target: T2, MetAP1 (Homo sapiens, UniProt P53582); assay: Metal dependence and baseline activity of MetAP1, chromogenic assay; type: biochemical; conditions: 500 nM MetAP1, no added metal
# T2 construct: histidine tag (N); gp67 secretion signal of vector pAcGP67B (N); made in house; host or cells: baculovirus-infected Sf9 insect cells, secreted into medium
# From the text: as §1
sequence,measurement,setting,value
MGAQFSKT [methionine-glycine-alanine-glutamine-phenylalanine-serine-lysine-threonine],baseline turnover by MetAP2,MetAP2,0.12 µM/min
same,baseline turnover by MetAP1,MetAP1,0.51 µM/min
